Test results reported in the supplement of paper PMC3682954.
Structures can show the parent of a compound that is named as a salt. ± gives the standard deviation of the averaged measurements. Some of the results follow. Many values rest on one well or one pass, so single values are uncertain.

Test system: RAW 264.7
Assay: HMGB1-induced TNF-alpha production relative to HMGB1-stimulated control; higher = more TNF-alpha secretion (less inhibition)
Conditions: stimulus: HMGB1 5 ug/ml, 18 h
[1] = compound concentration: 1 ug/ml

SMILES | HMGB1-induced TNF-alpha production (compound concentration: 3 uM) [%] | HMGB1-induced TNF-alpha production [1] [%]
O=c1[nH]cnc2c1ncn2[C@H]1CC[C@@H](CO)O1 [Didanosine] | 91.2 ± 14 | 
Nc1nc(O)c2ncn(CCC(CO)CO)c2n1 | 105 | 
Nc1nc(O)c2ncn(CCC(CO)CO)c2n1 [Penciclovir] | 99.4 ± 23 | 
Fc1ccc([C@@H]2CCNC[C@H]2COc2ccc3c(c2)OCO3)cc1 [Paroxetine] | 90.4 ± 15 | 
Fc1ccc([C@@H]2CCNC[C@H]2COc2ccc3c(c2)OCO3)cc1 [Paroxetine Hydrochloride] | 117 | 
Fc1ccc([C@@H]2CCNC[C@H]2COc2ccc3c(c2)OCO3)cc1 | 69.3 | 
Fc1ccc([C@@H]2CCNC[C@H]2COc2ccc3c(c2)OCO3)cc1 [Paroxetine hydrochloride hemihydrate (MW = 374.83)] | 79.3 | 
NC(CO)C(=O)NNCc1ccc(O)c(O)c1O (stereo not drawn) | 74.9 | 
NC(CO)C(=O)NNCc1ccc(O)c(O)c1O (stereo not drawn) [Benserazide] | 117 | 
NC(CO)C(=O)NNCc1ccc(O)c(O)c1O (stereo not drawn) [Benserazide hydrochloride] | 107 ± 11 | 
C[C@H]1COc2c(N3CCN(C)CC3)c(F)cc3c(=O)c(C(=O)O)cn1c23 | 96.2 ± 11 | 
C[C@H]1COc2c(N3CCN(C)CC3)c(F)cc3c(=O)c(C(=O)O)cn1c23 [Levofloxacin] | 110 | 
Cc1cccc(C(=O)NCN2CCN(c3ccccc3C#N)CC2)c1 [PD 168,077 maleate] | 106 | 
CN(C)CCCN1c2ccccc2CCc2ccccc21 [Imipramine hydrochloride] | 84.8 ± 7.4 | 
CN(C)CCCN1c2ccccc2CCc2ccccc21 | 79.8 | 
CN(C)CCCN1c2ccccc2CCc2ccccc21 [Imipramine] | 88 | 
NCCC[C@H](N)CC(=O)N[C@H]1CNC(=O)[C@H]([C@H]2C[C@H](O)NC(N)=N2)NC(=O)/C(=C/NC(N)=O)NC(=O)[C@H](CO)NC(=O)[C@H](CO)NC1=O [Viomycin sulfate] | 121 | 
O=C1c2cccc3c2[C@H](CCC3)CN1[C@@H]1CN2CCC1CC2 | 98.8 | 
NCC[C@H](O)C(=O)N[C@@H]1C[C@H](N)[C@@H](O[C@H]2O[C@H](CN)[C@@H](O)[C@H](O)[C@H]2O)[C@H](O)[C@H]1O[C@H]1O[C@H](CO)[C@@H](O)[C@H](N)[C@H]1O | 84.5 | 
NCC[C@H](O)C(=O)N[C@@H]1C[C@H](N)[C@@H](O[C@H]2O[C@H](CN)[C@@H](O)[C@H](O)[C@H]2O)[C@H](O)[C@H]1O[C@H]1O[C@H](CO)[C@@H](O)[C@H](N)[C@H]1O [Amikacin hydrate] | 80.5 | 
CC1CC2(C)Oc3ccccc3C3OCC1(COC(=O)Nc1ccccc1)C(C)C32 (stereo not drawn) |  | 53.5

Whole records, quoted from the list:
NCC[C@H](O)C(=O)N[C@@H]1C[C@H](N)[C@@H](O[C@H]2O[C@H](CN)[C@@H](O)[C@H](O)[C@H]2O)[C@H](O)[C@H]1O[C@H]1O[C@H](CO)[C@@H](O)[C@H](N)[C@H]1O as listed: HMGB1-induced TNF-alpha production (compound concentration: 3 uM) [%]: 84.5
NC(CO)C(=O)NNCc1ccc(O)c(O)c1O (stereo not drawn) [Benserazide] as listed: HMGB1-induced TNF-alpha production (compound concentration: 3 uM) [%]: 117

Continued:

SMILES | HMGB1-induced TNF-alpha production (compound concentration: 3 uM) [%] | HMGB1-induced TNF-alpha production [1] [%]
O=C1C(SCCO)=C(SCCO)C(=O)c2ccccc21 | 12.7 | 
COc1cc(/C=C/C(=O)CC(=O)/C=C/c2ccc(O)c(OC)c2)ccc1O [Curcumine] |  | 61.7
Cc1cc2nc3c(=O)[nH]c(=O)nc-3n(CC(O)C(O)C(O)COP(=O)(O)O)c2cc1C (stereo not drawn) | 87.1 | 
CC(=O)OCC[N+](C)(C)C | 87.2 | 
CC(=O)OCC[N+](C)(C)C [Acetylcholine] | 112 | 
CC1(C)CCC2=C(O1)c1ccccc1C(=O)C2=O [beta-Lapachone] | 90.4 | 
OCCN1C[C@H](O)[C@@H](O)[C@H](O)[C@H]1CO | 94.3 ± 1.1 | 
OCCN1C[C@H](O)[C@@H](O)[C@H](O)[C@H]1CO [Miglitol] | 62.5 | 
O=c1cc(O)ccn1[C@@H]1O[C@H](CO)[C@@H](O)[C@H]1O [3-Deazauridine] |  | 65.3
COc1cc2c(cc1OC)-c1c(OC)c(OC)cc3ccnc(c13)C2=O [Oxoglaucine] |  | 68.2
Cn1cnc([N+](=O)[O-])c1Sc1ncnc2[nH]cnc12 | 69.6 ± 14 | 
Cn1cnc([N+](=O)[O-])c1Sc1ncnc2[nH]cnc12 [Azathioprine] | 76.5 ± 8.8 | 
CC(C)C(=O)Nc1ccc([N+](=O)[O-])c(C(F)(F)F)c1 [Flutamide] | 88.2 ± 17 | 
CC(C)C(=O)Nc1ccc([N+](=O)[O-])c(C(F)(F)F)c1 | 90 | 
O=C(O)CCCC[C@@H]1SC[C@@H]2NC(=O)N[C@@H]21 | 98.9 | 
O=C(O)CCCC[C@@H]1SC[C@@H]2NC(=O)N[C@@H]21 [Biotin] | 80.5 | 82.2
COc1cn([C@@H]2O[C@H](CO)[C@@H](O)[C@H]2O)c(=O)[nH]c1=O [5-Methoxyuridine] |  | 83.2
CCOC(=O)Nc1ccc(NCc2ccc(F)cc2)nc1N [Flupirtine maleate] | 90.5 | 
O=C[C@H](O)[C@@H](O)[C@H](O)[C@H](O)CO[C@@H]1O[C@H](CO)[C@@H](O)[C@H](O)[C@H]1O [Gentiobiose] |  | 77.6
C[C@@]1(O)CCOC(=O)C1 [Mevalonic-D, L acid lactone] | 96.4 | 
COCC(=O)Nc1c(I)c(C(=O)NCC(O)CO)c(I)c(C(=O)N(C)CC(O)CO)c1I (stereo not drawn) [Iopromide] | 127 | 
